In patent US20200129476A1, “PARP Inhibitor in Combination with a Glucocorticoid and/or Ascorbic Acid and/or a Protein Growth Factor for the Treatment of Impaired Wound Healing” (AKRIBES BIOMEDICAL GMBH, priority 2017, published 2020):
“Also recorded” adds a separate entry of the source. At least one structure is not confirmed: it was looked up by name or label, or the drawing left a doubt.

Columns and labels:
[1] = system: primary human dermal fibroblasts (HDF); assay: Fibroblast-derived matrix (FDM) formation assay (3D), with or without wound exudate; format: cell-based; settings: for FDM formation, veliparib combined with glucocorticoid: WE #78, patient with diabetes, immunosuppression after kidney transplantation (FIG. 7)
Protocol: HDF cells were seeded at 5000 cells/well on day −3 into 96-well tissue culture plates (1250 cells/well for 384-well plates), which had been pre-coated for 1 hour at 37° C. with 0.2% gelatin solution (Sigma). When the cells reached confluence (=day 0), a matrix promoting supplement (vitamin C: 2-phospho-L-ascorbic acid trisodium salt, 100 μg/ml; Sigma) was added together with test samples containing PDGF-BB, TGF-ß1 or graded concentrations of compounds −/+WE as described for the HDF proliferation assay. After 4 days, medium was replaced by fresh vitamin C- and stimulus- as well as compound-containing medium, maintaining the conditions initiated on day 0. TGF-ß1 and PDGF-BB were included as positive controls to promote FDM formation and cell growth, respectively. After a total incubation time of 8 days, FDM production was measured in fixed cultures via SRB staining and evaluated as described above. In some cases, the experiment was stopped and evaluated already on day 4.
Low molecular weight compounds (see list in Table 1) were dissolved in DMSO (Bioreagent for cell culture, Sigma) at 10 mM or 100 mM and diluted at least 1:1000 in medium for cellular assays (final DMSO concentration ≤0.1%). Compounds were typically tested in half-logarithmic dilution series (1:3.33), starting at 10 μM or 100 μM as the highest compound concentration.
(§1) Cells were incubated with compounds for 72 hours in proliferation assays and up to 8 days for FDM assay (refreshed after 4 days). When compounds were tested for their effect on WE stimulation, the incubation of cells with compounds was started and ended simultaneously with WE-incubation.

[2] = system: macrophages; assay: Fibroblast-macrophage coculture with wound exudate: live cells in FACS CD45-gate; format: cell-based, human; settings: WE #78; veliparib 10 μM or dexamethasone 10 nM alone
Protocol: CD14^+ monocytes, isolated from PBMC of healthy donors by magnetic bead separation were incubated either alone or in the presence of primary human dermal fibroblasts (CelINTec) or fibroblast-derived matrices (FDM). FDM had been generated from primary human dermal fibroblasts by a 3-week incubation with the growth supplements vitamin C or insulin and EGF (vitamin C: 2-phospho-L-ascorbic acid trisodium salt, 100 μg/ml; human EGF, 5 ng/ml; human insulin, 5 μg/ml). Alternatively, fibroblast monolayer cultures can be used as well. […]
Supernatants were harvested and frozen for cytokine determination by ELISA, and cells were harvested and subjected to FACS analysis, gating on the monocyte population. Geometric means or mean fluorescence intensities (MFI) were used to quantify surface marker expression.
Cells were harvested and resuspended in FACS buffer (PBS containing 2% FCS). […] Co-staining with CD45 eFluor (#506 69-0459-42) was used to distinguish macrophages from primary human fibroblasts when analyzed from co-cultures. After washing cells with FACS buffer, they were fixed with 1% paraformaldehyde in PBS and stored at 4° C. in the dark until data were acquired on a Gallios flow cytometer from Beckman Coulter and analyzed with the Kaluza analysis software 1.3.

[3] = system: IL-1α; assay: Fibroblast-macrophage coculture with wound exudate: IL-1α; format: cell-based, human; settings: WE #78; dexamethasone 10 nM added to veliparib or talazoparib
Protocol: CD14^+ monocytes, isolated from PBMC of healthy donors by magnetic bead separation were incubated either alone or in the presence of primary human dermal fibroblasts (CelINTec) or fibroblast-derived matrices (FDM). FDM had been generated from primary human dermal fibroblasts by a 3-week incubation with the growth supplements vitamin C or insulin and EGF (vitamin C: 2-phospho-L-ascorbic acid trisodium salt, 100 μg/ml; human EGF, 5 ng/ml; human insulin, 5 μg/ml). Alternatively, fibroblast monolayer cultures can be used as well. After 4 days to a week to allow for macrophage differentiation in the presence or absence of M-CSF (25 ng/ml), the cultures were stimulated overnight with graded concentrations of test compounds in the absence or presence of various dilutions of sterile-filtered WE. IFN-g (50 ng/ml), LPS (100 ng/ml) and IL-4 (25 ng/ml) or combinations thereof served as controls for M1 and M2 macrophage induction. For negative control samples, medium was added instead of specific stimuli. WE were added to the culture medium for overnight stimulation at dilutions ranging from 1:25 to 1:100.
Supernatants were harvested and frozen for cytokine determination by ELISA, and cells were harvested and subjected to FACS analysis, gating on the monocyte population. Geometric means or mean fluorescence intensities (MFI) were used to quantify surface marker expression. […]

[4] = system: primary human dermal fibroblasts (HDF); assay: Primary human dermal fibroblast (HDF) proliferation assay (2D), with or without wound exudate; format: cell-based; settings: for enhancement of PARP inhibitor effect on fibroblast proliferation: added to PARP inhibitor titration; for HDF proliferation, dexamethasone with veliparib: veliparib 1, 3, 10 μM, fresh (passage 9) and senescent (passage 21) HDF; for fibroblast proliferation, combination of dexamethasone and vitamin C versus each alone: presence of WE where both enhanced proliferation
Protocol: (§2) Primary human dermal fibroblasts (HDF) were purchased from CELLnTEC, Bern. They were routinely grown in Dulbecco's modified Eagle's medium (DMEM) containing 10% FCS, 2 mM glutamine, and 100 U/ml penicillin/100 μg/ml streptomycin. Media, antibiotics, and glutamine were bought from Lonza. The cells were used at passage 5-15. Cells were trypsinized and seeded at 5000 cells/well in 200 μl into the inner wells of 96-well plates. The outer wells were loaded with sterile water. The cells were allowed to adhere overnight and then incubated for 72 hours at 37° C. under the following conditions: graded compound concentrations or 20 ng/ml PDGF-BB (Tonbo Biosciences) in the absence or presence of different dilutions of sterile-filtered WE in medium. For control samples, 200p1 medium was added instead of specific stimuli. Alternatively, the cells were seeded into 384-well plates at 2500 cells/well directly together with test compounds or growth factors and WE or medium in a total volume of […].
(§3) At the end of the 72-hour incubation period, supernatants were removed for the determination of IL-1ß, and the cells were fixed with 4% paraformaldehyde (Morphisto) for 15 minutes at room temperature and washed 3 times with PBS. A control plate was fixed after the overnight adherence of the cells (day 1) to determine the starting cell number.
Total cellular protein was determined as a measure of cell number by staining the fixed cells with sulforhodamine B (SRB, Sigma). A 0.4% SRB solution in 1% acetic acid was added to the wells for 30 minutes. The wells were then washed with 1 acetic acid until the wash solution remained colorless. After drying, the dye was eluted with 10 mM Tris.HCl, pH8.5, and absorbance was measured either at 550 or 492 nm for lower and higher cell densities, respectively. The average absorbance of the sample representing the day 1 starting cell number (for 96-well plates) was subtracted from the absorbance values of the WE-treated cells.
All experiments were carried out in triplicate for each sample and concentration, and means±standard deviation (SD) were used for the evaluation of the experiment. Results are expressed as percentage of control values for unstimulated cells.
Low molecular weight compounds (see list in Table 1) were dissolved in DMSO (Bioreagent for cell culture, Sigma) at 10 mM or 100 mM and diluted at least 1:1000 in medium for cellular assays (final DMSO concentration ≤0.1%).
as §1

[5] = system: IL-1ß; assay: IL-1ß secretion by HDF in the presence of wound exudate (ELISA); format: cell-based, human; settings: dexamethasone 3 nM (suboptimal) added to PARP inhibitors, WE present (FIG. 22)
Protocol: as §2, §3
IL-1ß levels were determined with a commercial ELISA kit. […]

[6] = presence of wound exudate (WE) of patients, several or unspecified WE

SMILES | FDM formation, veliparib combined with glucocorticoid [1] | FDM formation, veliparib combined with glucocorticoid ([1]; listed as DEXA) | fibroblast-derived matrix (FDM/ECM) formation ([1]; absence of wound exudate) | fibroblast-derived matrix (FDM/ECM) formation ([1]; presence of wound exudate, WE not specified (FIG. 6: microscopy)) | percentage of live cells in the FACS CD45-gate [2] | enhancement of PARP inhibitor effect on IL-1α [3] | fibroblast (HDF) proliferation ([4]; absence of wound exudate (normal medium)) | enhancement of PARP inhibitor effect on fibroblast proliferation ([4]; WE #43, different patient (FIG. 15)) | enhancement of PARP inhibitor effect on fibroblast proliferation ([4]; dexamethasone 3 nM, vitamin C 100 μg/ml, WE #78 (FIG. 14)) | enhancement of PARP inhibitor effect on cell proliferation ([4]; dexamethasone 3 nM (suboptimal) added to PARP inhibitors, WE present (FIG. 22)) | HDF proliferation, dexamethasone with veliparib ([4]; dexamethasone 3 nM, WE #78) | HDF proliferation, dexamethasone with veliparib ([4]; dexamethasone 3 nM, absence of WE) | fibroblast proliferation, combination of dexamethasone and vitamin C versus each alone [4] | fibroblast proliferation, combination of dexamethasone and vitamin C versus each alone ([4]; listed as DEXA) | fibroblast (HDF) proliferation [4, 6] | enhancement of PARP inhibitor effect on IL-1ß secretion [5]
C[C@@H]1C[C@H]2[C@@H]3CCC4=CC(=O)C=C[C@]4(C)[C@@]3(F)[C@@H](O)C[C@]2(C)[C@@]1(O)C(=O)CO [dexamethasone, Dexamethasone 21-acetate] | enhance the effect of veliparib on rescuing fibroblast-derived matrix (FDM) formation after wound exudate treatment | enhance the effect of veliparib on rescuing FDM formation after WE treatment | inhibits both HDF proliferation and extracellular matrix (ECM) formation; also recorded: inhibits fibroblast proliferation and fibroblast-derived matrix (FDM) formation | surprisingly enhances HDF proliferation and ECM formation; also recorded: surprisingly enhances fibroblast proliferation and fibroblast-derived matrix (FDM) formation for specific wound exudates | only a marginal effect | enhanced | reduces fibroblast proliferation in normal medium; also recorded: inhibits both HDF proliferation and extracellular matrix (ECM) formation; also recorded: inhibits fibroblast proliferation | synergistically enhance the PARP inhibitor compound effects | enhance the positive enhancing effect of the PARP antagonists; also recorded: synergistically enhance the PARP inhibitor compound effects | effects were enhanced | contributed to the enhancement of HDF proliferation by veliparib | contributed to inhibition of HDF proliferation | superior as compared to each compound alone | better than each compound alone | dose-dependently relieved wound exudate (WE)-induced inhibition of HDF (human dermal fibroblast) proliferation; also recorded: surprisingly enhances HDF proliferation and ECM formation; also recorded: surprisingly enhances fibroblast proliferation | effects were enhanced
C[C@@H]1C[C@H]2[C@@H]3C[C@H](F)C4=CC(=O)C=C[C@]4(C)[C@@]3(F)[C@@H](O)C[C@]2(C)[C@@]1(O)C(=O)SCF [fluticasone] |  |  |  |  |  |  |  |  |  |  |  |  |  |  | Qualitatively identical results | 
CCOC(=O)O[C@]1(C(=O)OCCl)CC[C@H]2[C@@H]3CCC4=CC(=O)C=C[C@]4(C)[C@H]3[C@@H](O)C[C@@]21C [loteprednol] |  |  |  |  |  |  |  |  |  |  |  |  |  |  | Qualitatively identical results | 
